PubChem BioAssay AID1688 (National Center for Advancing Translational Sciences (NCATS), 2009)
Screen size: about 220,000 compounds; about 2,400 (1.1%) were called active. The shares of active, inactive and inconclusive entries below differ from those in the screen. Calls come from the whole dose curve; as a rule, active = well fitted inhibition curve with a large enough effect; inconclusive = small, poorly fitted or top-dose-only effect, or effect the other way; inactive = no such curve, though single readings can be large or run the other way. Where the call is inconclusive, the potency comes from a doubtful curve fit.

Experiment: qHTS Multiplex Assay to Identify Dual Action Probes in a Cell Model of Huntington: Aggregate Formation (GFP); note: nearly all actives have a fitted effect of over 60% in size
Settings: PC12 HttQ103-GFP aggregates, Acumen cytometry, 40 h; activity change, negative = inhibition: at 46.1 µM (top of the series) unless noted
Summary of the method: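 PC12/HTTQ103-GFP, ecdysone-inducible; teb 100 nM; cpd qHTS titration; GFP aggregates read on laser cytometer, Ex 488/Em 500-530 nm.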
% is set by controls: 0 for no effect and ±100 for the full control effect; potency is the fitted concentration of half-maximal effect.

| SMILES | Potency | activity change, negative = inhibition |
| --- | --- | --- |
| CCOc1ccccc1C(=O)NCCC(=O)O | inconclusive: 3.55 µM [inhibitor, single point] |  |
| COC(=O)c1ccccc1NC(=O)NCCc1ccccc1OC | inconclusive: 5.62 µM [activator, partial curve] |  |
| O=C(CSc1nc2ccccc2s1)Nc1cc(S(=O)(=O)N2CCOCC2)ccc1Cl |  | inactive: -13.5% |
| O=C(c1ccco1)N1CCN(c2nc(C3CC3)nc3sc4c(c23)CCCC4)CC1 | inconclusive: 28.2 µM [inhibitor, single point] |  |
| CCc1ccc(/C=C\C(=O)N2CCc3ccccc3C2)cc1 | inconclusive: 11.2 µM [inhibitor, single point] |  |
| CCSc1nnc(NC(=O)C(C(F)(F)F)C(F)(F)F)s1 | inconclusive: 25.1 µM [activator, partial curve, poor fit] |  |
| COC(=O)C(Cc1ccc(O)cc1)NC(=O)c1ccccc1 (centres undefined) |  | inactive: -0.96% |
| Cc1cc(C)cc(NC(=O)c2ccc3nc[nH]c3c2)c1 |  | inactive: -9.78% |
| O=C(Nc1cccc(Cl)c1)Nc1cccc(Cl)c1 | inconclusive: 22.4 µM [inhibitor, single point] |  |
| C=C(C)COc1ccc(-c2[nH]ncc2Oc2ccccc2OCC)c(O)c1 | inconclusive: 3.16 µM [inhibitor, single point] |  |
| CCOC(=O)c1c(C)[nH]c(C(C)=O)c1C |  | inactive: -15.7% [at 9.22 µM] |
| CCN(CCCNC(=O)CCNC(=O)Cn1cnc2ccccc2c1=O)c1cccc(C)c1 | inconclusive: 35.5 µM [activator, single point] |  |
| O=C(Nc1ccc(S(=O)(=O)N2CCCCCC2)cc1)c1ccc(Br)o1 | inconclusive: 35.5 µM [inhibitor, single point] |  |
| COc1ccc(-n2c(C)c3c(OC)cccc(=O)c3c2C)cc1 | inconclusive: 15.8 µM [inhibitor, single point] |  |
| O=C(CSc1ccc(Cl)cc1Cl)N1CCC(c2nc3ccccc3s2)CC1 | inconclusive: 35.5 µM [inhibitor, single point] |  |
| Cc1c(C(=O)N2CCOCC2)[nH]c2c1C(=O)CC(c1ccccc1Cl)C2 (centres undefined) | inconclusive: 3.55 µM [inhibitor, partial curve] |  |
| COc1cccc(CC2(CO)CCCN(Cc3ccc(-c4ccco4)cc3)C2)c1 (centres undefined) |  | inactive: -1.66% [at 9.22 µM] |
| CS(=O)(=O)N(CCc1ccccc1)CC(=O)Nc1ccc(OCc2ccccc2)cc1 | inconclusive: 11.2 µM [inhibitor, single point] |  |
| COc1ccc(CC(=O)Nc2nc(-c3cc(OC)ccc3OC)cs2)cc1 | inconclusive: 35.5 µM [inhibitor, single point] |  |
| N#C/C(=C/c1ccc2c(c1)OCO2)C(=O)Nc1ccc(O)cc1 | inconclusive: 5.62 µM [activator, single point] |  |
| CCOC(=O)CSc1nc2sc(C)c(C)c2c(=O)[nH]1 |  | inactive: 7.74% |
| CCc1ccccc1N1CCN(S(=O)(=O)c2cc(OC)ccc2OC)CC1 | inconclusive: 35.5 µM [inhibitor, single point] |  |

Part of the list above, with tabs.
SMILES	Potency	activity change, negative = inhibition
CCOC(=O)c1c(C)[nH]c(C(C)=O)c1C		inactive: -15.7% [at 9.22 µM]
CCN(CCCNC(=O)CCNC(=O)Cn1cnc2ccccc2c1=O)c1cccc(C)c1	inconclusive: 35.5 µM [activator, single point]	
O=C(Nc1ccc(S(=O)(=O)N2CCCCCC2)cc1)c1ccc(Br)o1	inconclusive: 35.5 µM [inhibitor, single point]	
COc1ccc(-n2c(C)c3c(OC)cccc(=O)c3c2C)cc1	inconclusive: 15.8 µM [inhibitor, single point]	
O=C(CSc1ccc(Cl)cc1Cl)N1CCC(c2nc3ccccc3s2)CC1	inconclusive: 35.5 µM [inhibitor, single point]	
Cc1c(C(=O)N2CCOCC2)[nH]c2c1C(=O)CC(c1ccccc1Cl)C2 (centres undefined)	inconclusive: 3.55 µM [inhibitor, partial curve]	
COc1cccc(CC2(CO)CCCN(Cc3ccc(-c4ccco4)cc3)C2)c1 (centres undefined)		inactive: -1.66% [at 9.22 µM]
CS(=O)(=O)N(CCc1ccccc1)CC(=O)Nc1ccc(OCc2ccccc2)cc1	inconclusive: 11.2 µM [inhibitor, single point]	

Further structures follow:

| SMILES | Potency | activity change, negative = inhibition |
| --- | --- | --- |
| Cc1nc2ccccc2c2oc(C(=O)NCC3CCCO3)cc12 (centres undefined) | inconclusive: 35.5 µM [inhibitor, single point] |  |
| CCc1ccc(NC(=S)NCc2cccnc2)cc1 |  | inactive: 20.5% [at 9.22 µM] |
| Cn1c(SCc2nnc3n2CCCCC3)nc2ccccc21 |  | inactive: 7.08% |
| O=C1C(Cl)=C(NCCCO)C(=O)c2ccccc21 | inconclusive: 35.5 µM [inhibitor, single point] |  |
| Cc1ccc(CNC(=O)c2oc3ccc(S(=O)(=O)N4CCC5(CC4)OCCO5)cc3c2C)cc1 | inconclusive: 0.631 µM [activator, single point] |  |
| Cc1ccc(C(C(=O)NC(C)(C)C)N(Cc2ccc3c(c2)OCO3)C(=O)c2ccc(CN3CCOCC3)o2)o1 (centres undefined) | inconclusive: 5.62 µM [activator, single point] |  |
| Cc1ccc(N2CCN(C(=O)c3ccccc3Br)CC2)c(C)c1 | inconclusive: 22.4 µM [inhibitor, single point] |  |
| CCOc1ccccc1N1CCN(Cc2ccco2)CC1 | inconclusive: 5.62 µM [inhibitor, single point] |  |
| CCCCS(=O)(=O)Nc1ccc2c(c1)ncn2C1CCCCC1 | inconclusive: 14.1 µM [inhibitor, single point] |  |
| CCOc1ccc(CC2NCCc3cc(OCC)c(OCC)cc32)cc1OCC (centres undefined) | inconclusive: 5.62 µM [inhibitor, single point] |  |
| COc1cccc(NC(=O)c2ncc(Cl)c(Cl)c2Cl)c1 | inconclusive: 35.5 µM [inhibitor, single point] |  |
| Cc1ccc(NS(=O)(=O)c2cc(NC(=O)c3ccc4c(c3)NC(=O)CS4)ccc2C)c(C)c1 | inconclusive: 35.5 µM [inhibitor, single point] |  |
| CCN(CC)c1ccc(/C=N/Nc2nc3ccccc3[nH]2)cc1 | inconclusive: 10 µM [activator, partial curve] |  |
| Cc1ccc(/C=C/C(=O)NCc2cccs2)cc1 |  | inactive: 8.18% |
| CSc1ccc2c(c1)N(CCC1CCCCN1C)c1ccccc1S2 (centres undefined) | inconclusive: 20 µM [inhibitor, partial curve, poor fit] |  |
| COc1ccc(-n2nc(C#N)c(Cl)cc2=O)cc1 | active: 25.1 µM |  |
| CCOc1ccc(-n2c(-c3ccccc3)c[n+]3c2CCC3)cc1 | active: 6.31 µM |  |
| O=C(CSc1nnc2ccccn12)NCc1cccs1 | inconclusive: 3.16 µM [activator, partial curve] |  |
| COc1ccccc1NC(=O)Nc1ccc(Cl)c(S(=O)(=O)Nc2ccccc2OC)c1 | inconclusive: 35.5 µM [inhibitor, single point] |  |
| COc1ccc(C2NC(=S)NC(C)=C2C(=O)Nc2ccccn2)cc1 (centres undefined) |  | inactive: -3.42% [at 9.22 µM] |
| CCOC(=O)N1CCC(NC(=O)c2ccc(N3CCC4(CC3)OCCO4)c([N+](=O)[O-])c2)CC1 | inconclusive: 1.26 µM [activator, single point] |  |
| CCOC(=O)c1oc2ccccc2c1CSc1nnnn1-c1ccccc1 | inconclusive: 35.5 µM [inhibitor, partial curve, poor fit] |  |
